No constants are given. Whether binding was seen depends on the method and setting. In cells and extracts the contact can be indirect. For some assays here: A result given as binding can be weak or reduced; the word gives no strength. Tags and fused reporters may be left off the sequences shown.
Key:
[1] = molecular target: GFP-tagged DS1-VP7 (VP7 of human rotavirus DS1 strain) (human rotavirus DS1 strain); experiment: co-IP; HEK293 cells co-transfected; NP40 lysis buffer; lysates incubated overnight at 4 °C with Dynabeads protein G coupled with anti-GFP antibody; immunoblot with anti-GFP and anti-FLAG
[2] = molecular target: GFP-tagged rotavirus NSP4 (rotavirus (strain not stated)); experiment: as above

B1: C-terminally Flag-tagged SPCS1 (protein, UniProt Q9Y6A9 1-169)
chain: MARGGDTGCTGPSETSASGAAAIALPGLEGPATDAQCQTLPLTVLKSRSPSPRSLPPALSCPPPQPAMLEHLSSLPTQMDYKGQKLAEQMFQGIILFSAIVGFIYGYVAEQFGWTVYIVMAGFAFSCLLTLPPWPIYRRHPLKWLPVQESSTDDKKPGERKIKRHAKNN
With B1 the binding [1] was “binds” and the binding [2] was “no binding”.
